Record: PubChem BioAssay AID504786 (Drosophila RNAi Screening Center, 2011)
The screen tested about 21,000 reagents; this is an unselected part of those that have a named target and a result. 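Primary screen; positive scores mean lost reporter signal, so the sign may be inverted from the usual convention.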 Reagents against one gene are numbered here. Not all columns of the deposit are shown.

- Assay: 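Positive regulators of HIF-driven reporter output in Drosophila cells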 (primary screen)
- Cells: Drosophila S2 cells with a stable HIF luciferase reporter
- Reagents: long dsRNA against Drosophila genes, about 0.2 µg dsRNA per well of a 384-well plate
- Timing: three days of knock-down, then 20 h of DFO before reading
- Treatment: desferrioxamine (DFO) at 100 µM, an iron chelator that mimics hypoxia, for 20 h
- Detection: 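HIF reporter luminescence in cells given 100 µM DFO for 20 h, using the mouse ldh-a hypoxia-response element, scored as per-plate z-scores; higher means greater loss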
- Scale: z-score: higher = stronger loss of HIF reporter signal

z-score, replicate 1, by target gene and reagent
HisRS (Histidyl-tRNA synthetase): #1 0
Jhe (Juvenile hormone esterase): #1 -0.3
Sgs3 (Salivary gland secretion 3): #1 -0.4
Or56a (Odorant receptor 56a): #1 -0.2
Tfb1 (Transcription factor B1): #1 -0.4
RpS25 (Ribosomal protein S25): #1 0.7
Ugt37A3 (UDP-glycosyltransferase family 37 member A3): #1 -0.2
Mov10 (Mov10 RISC complex RNA helicase): #1 -0.3
foxo (forkhead box, sub-group O): #1 3.2; #2 -0.4
CG15406: #1 -0.2
CG9646: #1 -0.3
CG13043: #1 -0.3
lectin-37Da: #1 -0.3
RpS26 (Ribosomal protein S26): #1 -0.2
Rchy1 (Ring finger and CHY zinc finger domain containing 1): #1 1.8
RabGGTa (Rab geranylgeranyltransferase subunit alpha): #1 -0.4
CG10748: #1 -0.2
xmas: #1 -0.6
NtR: #1 -0.3
ppk30 (pickpocket 30): #1 -0.5
Smyd4-4 (SET and MYND domain containing, class 4, member 4): #1 0.1
l(1)G0196 (lethal (1) G0196): #1 0.2; #2 -0.4; #3 0.2
CG14538 (retired record): #1 -0.2
VhaM9.7-a (Vacuolar H[+] ATPase M9.7 subunit a): #1 -0.4
CG14760: #1 -0.1
CG7763: #1 -0.3
CG3285: #1 -0.2
CG3819: #1 -0.1
CG1077: #1 -0.3
CG9302: #1 -0.6
jhamt (juvenile hormone acid methyltransferase): #1 -0.1

Laid out differently: 4 of the entries above.
| Target gene | reagent no. | z-score, replicate 1 |
| --- | --- | --- |
| HisRS (Histidyl-tRNA synthetase) | 1 | 0 |
| Jhe (Juvenile hormone esterase) | 1 | -0.3 |
| Sgs3 (Salivary gland secretion 3) | 1 | -0.4 |
| Or56a (Odorant receptor 56a) | 1 | -0.2 |
